Data from BindingDB's records for PubMed 2250662 (Glaxo Group Research, 1990).

The chains behind the UniProt entries cited, without tags or fusion partners.
UniProt P08483, whole entry: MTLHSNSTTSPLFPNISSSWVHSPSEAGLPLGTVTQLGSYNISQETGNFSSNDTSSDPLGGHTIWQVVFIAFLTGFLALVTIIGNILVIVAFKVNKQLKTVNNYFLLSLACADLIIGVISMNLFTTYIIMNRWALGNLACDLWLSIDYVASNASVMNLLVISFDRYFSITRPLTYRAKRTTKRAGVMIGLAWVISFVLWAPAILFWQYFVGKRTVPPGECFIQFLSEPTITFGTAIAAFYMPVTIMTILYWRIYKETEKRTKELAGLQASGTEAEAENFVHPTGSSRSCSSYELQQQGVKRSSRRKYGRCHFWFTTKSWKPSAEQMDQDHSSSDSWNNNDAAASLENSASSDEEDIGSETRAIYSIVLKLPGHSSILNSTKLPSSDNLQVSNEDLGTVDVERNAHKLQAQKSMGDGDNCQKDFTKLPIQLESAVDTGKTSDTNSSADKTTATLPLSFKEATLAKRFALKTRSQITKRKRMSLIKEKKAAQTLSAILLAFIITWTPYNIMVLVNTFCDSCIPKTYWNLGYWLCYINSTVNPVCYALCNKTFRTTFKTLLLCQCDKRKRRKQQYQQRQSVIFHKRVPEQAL

Columns and labels:
[1] = target: T1, Muscarinic acetylcholine receptor M2 (Rattus norvegicus, UniProt P10980)
T1 sequence (P10980 whole entry): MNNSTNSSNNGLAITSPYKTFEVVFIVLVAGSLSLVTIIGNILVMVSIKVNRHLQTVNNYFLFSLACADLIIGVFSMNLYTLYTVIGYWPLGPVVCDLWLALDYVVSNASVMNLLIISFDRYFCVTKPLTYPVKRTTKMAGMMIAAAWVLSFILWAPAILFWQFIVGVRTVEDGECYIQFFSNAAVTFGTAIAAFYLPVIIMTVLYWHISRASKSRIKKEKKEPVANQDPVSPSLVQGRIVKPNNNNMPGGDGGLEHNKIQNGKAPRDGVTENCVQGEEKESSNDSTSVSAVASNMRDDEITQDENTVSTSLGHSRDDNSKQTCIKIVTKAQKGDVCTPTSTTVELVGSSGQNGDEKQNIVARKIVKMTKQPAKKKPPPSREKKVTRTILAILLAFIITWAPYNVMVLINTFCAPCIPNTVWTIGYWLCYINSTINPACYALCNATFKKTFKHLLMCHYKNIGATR

[2] = target: Muscarinic acetylcholine receptor M3 (Rattus norvegicus, UniProt P08483)
[3] = target: T2, Muscarinic acetylcholine receptor M4 (Gallus gallus, UniProt P17200)
T2 sequence (P17200 whole entry): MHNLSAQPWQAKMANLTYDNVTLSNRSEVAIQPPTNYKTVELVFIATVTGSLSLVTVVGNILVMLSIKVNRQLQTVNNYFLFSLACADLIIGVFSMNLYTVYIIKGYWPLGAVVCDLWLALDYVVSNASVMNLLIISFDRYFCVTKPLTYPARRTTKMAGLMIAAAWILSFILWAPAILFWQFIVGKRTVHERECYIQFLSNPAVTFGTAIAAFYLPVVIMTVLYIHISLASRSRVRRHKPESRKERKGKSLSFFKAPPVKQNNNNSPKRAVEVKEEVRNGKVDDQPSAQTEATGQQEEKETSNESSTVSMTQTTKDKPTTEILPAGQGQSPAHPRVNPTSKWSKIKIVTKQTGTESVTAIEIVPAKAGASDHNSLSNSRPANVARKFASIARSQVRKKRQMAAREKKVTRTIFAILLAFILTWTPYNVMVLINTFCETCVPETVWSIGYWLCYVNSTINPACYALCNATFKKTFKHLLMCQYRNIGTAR

[4] = target: T3, Muscarinic acetylcholine receptor (Oryctolagus cuniculus, UniProt A0A5F9DUN4)
T3 sequence (A0A5F9DUN4 whole entry): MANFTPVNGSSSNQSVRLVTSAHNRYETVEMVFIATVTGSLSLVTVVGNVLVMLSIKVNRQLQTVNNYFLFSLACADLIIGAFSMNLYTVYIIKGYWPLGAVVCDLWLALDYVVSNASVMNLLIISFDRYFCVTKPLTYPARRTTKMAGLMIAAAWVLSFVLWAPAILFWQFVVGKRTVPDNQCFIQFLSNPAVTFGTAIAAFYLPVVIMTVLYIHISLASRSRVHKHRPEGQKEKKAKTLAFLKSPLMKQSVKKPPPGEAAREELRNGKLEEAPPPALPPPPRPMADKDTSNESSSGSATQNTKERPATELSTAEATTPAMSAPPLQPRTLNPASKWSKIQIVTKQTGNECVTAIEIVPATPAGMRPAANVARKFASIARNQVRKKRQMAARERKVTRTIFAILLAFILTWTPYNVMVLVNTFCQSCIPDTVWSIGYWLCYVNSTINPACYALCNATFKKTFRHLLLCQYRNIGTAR

## CN1[C@@H]2CC[C@H]1CC(OC(=O)[C@H](O)c1ccccc1)C2 (some centres undefined) [CAS_87-00-3]
[1]
  Ki: 166 nM
[2]
  Ki: 58.9 nM
[3]
  Ki: 72.4 nM
[4]
  Ki: 25.1 nM
